These are yes or no findings as the source states them, for the method shown. Some entries that bind do so weakly or less than the wild type. Values belong to the binder of their own block, whether it stands above or below them.
Key:
[1] = target: human SYCE1 C-terminal region 177–305 (yeast two-hybrid construct) (human) (UniProt Q8N0S2); experiment: two-hybrid; Matchmaker Gold; pGBKT7 in Y187 mated with pGADT7 in Y2HGold; plated on SD/-Ade/-His/-Leu/-Trp/X-α-Gal, 5 days at 30 °C; reporters ADE1, HIS3, MEL1
[2] = target: human SYCE1 N-terminal region of amino acids 25–179 (yeast two-hybrid construct) (human) (UniProt Q8N0S2); experiment: as above
[3] = target: SYCE1 core tethered dimer (short linker) (human) (UniProt Q8N0S2); experiment: SEC-MALS; 6–20 mg/ml loaded on Superdex 200 Increase 10/300 GL in 20 mM Tris pH 8.0, 150 mM KCl, 2 mM DTT; both purified

binding [1]: no binding
B1: human SYCE1 C-terminal region 177–305 (yeast two-hybrid construct) (domain or fragment, UniProt Q8N0S2 177-305)
chain: MPERLAKEICALDSSKEQLLKEEKLVKATLEDVKHQLCSLCGAEGPSTLDEGLFLRSQEAAATVQLFQEEHRKAEELLAAAAQRHQQLQQKCQQQQQKRQRLKEELEKHGMQVPAQAQSTQEEEAGPGD

binding [2]: binds
B2: human SYCE1 N-terminal region of amino acids 25–179 (yeast two-hybrid construct) (domain or fragment, UniProt Q8N0S2 25-179)
chain: GQDTSSQKIEDLMEMVQKLQKVGSLEPRVEVLINRINEVQQAKKKANKDLGEARTICEALQKELDSLHGEKVHLKEILSKKQETLRILRLHCQEKESEAHRKHTMLQECKERISALNLQIEEEKNKQRQLRLAFEEQLEDLMGQHKDLWDFHMPE

binding [3]: no binding (tested: 6–20 mg/ml loaded)
B3: SYCE1 core tethered dimer (short linker) (protein, UniProt Q8N0S2 25-179; Q8N0S2 25-179)
chain: GQDTSSQKIEDLMEMVQKLQKVGSLEPRVEVLINRINEVQQAKKKANKDLGEARTICEALQKELDSLHGEKVHLKEILSKKQETLRILRLHCQEKESEAHRKHTMLQECKERISALNLQIEEEKNKQRQLRLAFEEQLEDLMGQHKDLWDFHMPEGQTNPGGQDTSSQKIEDLMEMVQKLQKVGSLEPRVEVLINRINEVQQAKKKANKDLGEARTICEALQKELDSLHGEKVHLKEILSKKQETLRILRLHCQEKESEAHRKHTMLQECKERISALNLQIEEEKNKQRQLRLAFEEQLEDLMGQHKDLWDFHMPE

From article PMC6823292, “Molecular structure of human synaptonemal complex protein SYCE1” (Chromosoma, 2019)
